Source: PMC11137995

The chains behind the UniProt entries cited, without tags or fusion partners.
UniProt P45973: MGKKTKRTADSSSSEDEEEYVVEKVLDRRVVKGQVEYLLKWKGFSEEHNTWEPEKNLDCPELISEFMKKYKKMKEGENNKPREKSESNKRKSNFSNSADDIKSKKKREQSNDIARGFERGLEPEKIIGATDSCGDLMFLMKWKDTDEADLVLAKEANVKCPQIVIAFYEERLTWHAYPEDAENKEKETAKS
UniProt Q13111: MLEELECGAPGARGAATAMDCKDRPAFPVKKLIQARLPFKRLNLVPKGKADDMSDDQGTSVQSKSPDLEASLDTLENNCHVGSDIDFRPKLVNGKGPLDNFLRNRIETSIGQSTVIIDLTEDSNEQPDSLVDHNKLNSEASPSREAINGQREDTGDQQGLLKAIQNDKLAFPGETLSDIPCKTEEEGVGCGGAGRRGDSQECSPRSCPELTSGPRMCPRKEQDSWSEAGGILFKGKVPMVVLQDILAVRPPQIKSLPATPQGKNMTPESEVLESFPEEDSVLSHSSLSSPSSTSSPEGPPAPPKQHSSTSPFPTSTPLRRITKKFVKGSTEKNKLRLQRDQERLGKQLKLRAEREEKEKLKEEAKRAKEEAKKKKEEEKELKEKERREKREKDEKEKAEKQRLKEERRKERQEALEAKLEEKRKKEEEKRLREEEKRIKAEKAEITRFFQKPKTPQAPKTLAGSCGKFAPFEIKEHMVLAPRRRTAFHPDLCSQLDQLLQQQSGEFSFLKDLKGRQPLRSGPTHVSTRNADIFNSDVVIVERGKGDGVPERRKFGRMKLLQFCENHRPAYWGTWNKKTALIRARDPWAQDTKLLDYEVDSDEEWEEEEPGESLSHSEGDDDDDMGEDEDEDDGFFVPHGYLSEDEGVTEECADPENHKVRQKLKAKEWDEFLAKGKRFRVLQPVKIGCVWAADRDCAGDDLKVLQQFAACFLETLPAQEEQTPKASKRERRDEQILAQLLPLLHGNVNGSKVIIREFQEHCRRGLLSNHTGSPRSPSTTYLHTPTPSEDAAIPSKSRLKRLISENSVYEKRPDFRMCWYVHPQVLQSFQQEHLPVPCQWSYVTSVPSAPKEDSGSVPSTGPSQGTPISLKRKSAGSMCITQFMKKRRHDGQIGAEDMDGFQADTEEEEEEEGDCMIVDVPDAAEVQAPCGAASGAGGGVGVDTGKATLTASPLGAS
UniProt Q13547: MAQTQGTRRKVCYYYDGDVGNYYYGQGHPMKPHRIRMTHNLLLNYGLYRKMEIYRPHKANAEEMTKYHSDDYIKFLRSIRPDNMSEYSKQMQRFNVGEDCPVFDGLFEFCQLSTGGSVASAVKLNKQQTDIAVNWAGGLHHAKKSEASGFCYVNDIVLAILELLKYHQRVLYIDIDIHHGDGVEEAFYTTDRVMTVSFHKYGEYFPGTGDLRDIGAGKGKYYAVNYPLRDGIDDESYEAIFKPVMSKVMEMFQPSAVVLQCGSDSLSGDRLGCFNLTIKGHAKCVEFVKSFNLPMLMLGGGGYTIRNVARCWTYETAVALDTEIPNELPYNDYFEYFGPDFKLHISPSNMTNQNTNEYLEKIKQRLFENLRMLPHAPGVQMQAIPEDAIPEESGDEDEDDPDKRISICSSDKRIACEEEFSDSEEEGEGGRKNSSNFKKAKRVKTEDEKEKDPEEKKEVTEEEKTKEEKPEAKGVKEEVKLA

B1: Pogo Transposable Element with ZNF Domain (protein, UniProt Q7Z3K3 1-1410)
chain: MADTDLFMECEEEELEPWQKISDVIEDSVVEDYNSVDKTTTVSVSQQPVSAPVPIAAHASVAGHLSTSTTVSSSGAQNSDSTKKTLVTLIANNNAGNPLVQQGGQPLILTQNPAPGLGTMVTQPVLRPVQVMQNANHVTSSPVASQPIFITTQGFPVRNVRPVQNAMNQVGIVLNVQQGQTVRPITLVPAPGTQFVKPTVGVPQVFSQMTPVRPGSTMPVRPTTNTFTTVIPATLTIRSTVPQSQSQQTKSTPSTSTTPTATQPTSLGQLAVQSPGQSNQTTNPKLAPSFPSPPAVSIASFVTVKRPGVTGENSNEVAKLVNTLNTIPSLGQSPGPVVVSNNSSAHGSQRTSGPESSMKVTSSIPVFDLQDGGRKICPRCNAQFRVTEALRGHMCYCCPEMVEYQKKGKSLDSEPSVPSAAKPPSPEKTAPVASTPSSTPIPALSPPTKVPEPNENVGDAVQTKLIMLVDDFYYGRDGGKVAQLTNFPKVATSFRCPHCTKRLKNNIRFMNHMKHHVELDQQNGEVDGHTICQHCYRQFSTPFQLQCHLENVHSPYESTTKCKICEWAFESEPLFLQHMKDTHKPGEMPYVCQVCQYRSSLYSEVDVHFRMIHEDTRHLLCPYCLKVFKNGNAFQQHYMRHQKRNVYHCNKCRLQFLFAKDKIEHKLQHHKTFRKPKQLEGLKPGTKVTIRASRGQPRTVPVSSNDTPPSALQEAAPLTSSMDPLPVFLYPPVQRSIQKRAVRKMSVMGRQTCLECSFEIPDFPNHFPTYVHCSLCRYSTCCSRAYANHMINNHVPRKSPKYLALFKNSVSGIKLACTSCTFVTSVGDAMAKHLVFNPSHRSSSILPRGLTWIAHSRHGQTRDRVHDRNVKNMYPPPSFPTNKAATVKSAGATPAEPEELLTPLAPALPSPASTATPPPTPTHPQALALPPLATEGAECLNVDDQDEGSPVTQEPELASGGGGSGGVGKKEQLSVKKLRVVLFALCCNTEQAAEHFRNPQRRIRRWLRRFQASQGENLEGKYLSFEAEEKLAEWVLTQREQQLPVNEETLFQKATKIGRSLEGGFKISYEWAVRFMLRHHLTPHARRAVAHTLPKDVAENAGLFIDFVQRQIHNQDLPLSMIVAIDEISLFLDTEVLSSDDRKENALQTVGTGEPWCDVVLAILADGTVLPTLVFYRGQMDQPANMPDSILLEAKESGYSDDEIMELWSTRVWQKHTACQRSKGMLVMDCHRTHLSEEVLAMLSASSTLPAVVPAGCSSKIQPLDVCIKRTVKNFLHKKWKEQAREMADTACDSDVLLQLVLVWLGEVLGVIGDCPELVQRSFLVASVLPGPDGNINSPTRNADMQEELIASLEEQLKLSGEHSESSTPRPRSSPEETIEPESLHQLFEGESETESFYGFEEADLDLMEI

What follows are molecules tested against full-length CBX5 (HA tagged, NM_001127322.1), encoding Heterochromatin Protein 1α (human) (UniProt P45973) (assay: affinity purification with mass spectrometry; IP samples of HEK293T cells transfected with the HP1α expression vectors and control vectors, analysed by ESI-MS; IP buffer 20 mM Tris-HCl pH 7.4, 150 mM NaCl, 1 mM EDTA, 1% NP-40; protein A + G agarose beads).
For “Chromatin Assembly Factor 1 Subunit A (from UniProt Q13111 1-956)”, the binding was “binds”. With “HDAC1 detected by ESI-MS in the HP1α IP sample of HEK293T cells (from UniProt Q13547 1-482) (enzyme)” the binding was “binds”. For B1, the binding was “binds”.

Results are given in words; binding and its absence hold for the method and conditions named. Binding seen in cells or lysates may run through a third protein. These calls come from enrichment with a bait or labelling near it, and not all partners need be listed.
